Reference: paper PMC12293498

Amino acid sequences for entries named in this document (tags omitted).
UniProt Q96SC8: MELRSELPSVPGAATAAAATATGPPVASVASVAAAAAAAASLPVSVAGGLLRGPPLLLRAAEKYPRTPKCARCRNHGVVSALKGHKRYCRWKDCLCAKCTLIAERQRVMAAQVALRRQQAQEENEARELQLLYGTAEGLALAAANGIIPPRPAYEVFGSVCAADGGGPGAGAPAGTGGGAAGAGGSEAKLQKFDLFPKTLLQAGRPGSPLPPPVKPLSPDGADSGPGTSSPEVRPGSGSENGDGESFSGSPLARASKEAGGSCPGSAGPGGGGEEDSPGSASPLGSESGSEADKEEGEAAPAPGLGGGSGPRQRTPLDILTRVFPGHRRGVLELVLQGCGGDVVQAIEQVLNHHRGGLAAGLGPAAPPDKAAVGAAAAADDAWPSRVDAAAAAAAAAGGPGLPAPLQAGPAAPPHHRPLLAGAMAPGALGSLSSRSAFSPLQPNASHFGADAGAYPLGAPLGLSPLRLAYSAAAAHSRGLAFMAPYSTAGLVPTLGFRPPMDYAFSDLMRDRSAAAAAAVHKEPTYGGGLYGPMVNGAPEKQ
UniProt P08238: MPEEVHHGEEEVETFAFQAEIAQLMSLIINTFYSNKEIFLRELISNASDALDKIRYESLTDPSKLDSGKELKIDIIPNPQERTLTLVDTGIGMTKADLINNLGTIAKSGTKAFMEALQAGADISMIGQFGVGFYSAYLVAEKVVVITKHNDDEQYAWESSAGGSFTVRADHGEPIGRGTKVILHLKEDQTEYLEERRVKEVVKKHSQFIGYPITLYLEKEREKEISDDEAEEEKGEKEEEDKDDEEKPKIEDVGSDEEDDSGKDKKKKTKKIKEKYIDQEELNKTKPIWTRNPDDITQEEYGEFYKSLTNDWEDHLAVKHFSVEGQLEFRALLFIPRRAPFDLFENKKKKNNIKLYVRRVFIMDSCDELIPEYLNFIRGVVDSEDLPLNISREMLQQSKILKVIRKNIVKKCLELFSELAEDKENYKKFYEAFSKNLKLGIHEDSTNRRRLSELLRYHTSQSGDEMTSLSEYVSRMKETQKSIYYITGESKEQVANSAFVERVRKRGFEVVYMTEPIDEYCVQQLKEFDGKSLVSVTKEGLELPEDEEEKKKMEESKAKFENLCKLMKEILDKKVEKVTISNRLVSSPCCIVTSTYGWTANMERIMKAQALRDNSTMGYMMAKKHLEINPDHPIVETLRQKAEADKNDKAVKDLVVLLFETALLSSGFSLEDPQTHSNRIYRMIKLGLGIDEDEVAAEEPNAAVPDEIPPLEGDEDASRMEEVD

Molecular target: DMRTA2 overexpressed from the pCMV6-Flag-DMRTA2 plasmid (human) (UniProt Q96SC8)
Assay: affinity purification with mass spectrometry; protein mass spectrometry after overexpressing DMRTA2 in A549 cells; how the sample was isolated is not told

binding: binds
Substance: HSP90β, endogenous (from UniProt P08238 1-724)

These are yes or no findings as the source states them, for the method shown. Binding seen in cells or lysates may run through a third protein. Here binding means that the protein was enriched with, or labelled near, the bait; the list need not be complete.
